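Whole-cell growth test on Mycobacterium tuberculosis, read after 4 days in a medium based on cholesterol and the lipid DPPC; the read-out is not stated. Tested at 50 µM. Direction is inferred from retests: higher values go with more growth inhibition. About 69,000 compounds were tested under these conditions; 0.54% (about 370) showed 50% or more at least once.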

The filed quantity is “Percent Effect” (%).
The controls that fix the scale are not given in the record; negative values are as filed.
The compounds are a random part of those screened.
Two or more numbers in one place are separate tests of the same structure; such repeats can differ widely.

{"structure": "Cc1cccc(CN2CCC3(CC(C(=O)NCC(C)C)=NO3)C2)c1", "stereo": "centres unmarked", "Percent Effect": 0.8255}
{"structure": "[H][C@@]12CCCO[C@]1([H])[C@H](NC(=O)C1CC1)CN2Cc1cccc(C#N)c1", "Percent Effect": "-2.721 & -3.573"}
{"structure": "[H][C@@]12CN(C(=O)[C@H]3CCCO3)C[C@]1([H])C(=O)N(Cc1ccc(OC)cc1)C2", "Percent Effect": 1.309}
{"structure": "O=C(O)c1csc(S(=O)(=O)N2CCCc3cc(OC(F)F)ccc32)c1", "Percent Effect": 16.52}
{"structure": "COc1ccc(-c2cccc(-c3ccn(CCCN(C)C)n3)c2)nn1", "Percent Effect": 3.876}
{"structure": "COc1ncc(-c2nccn2-c2ccccc2CN2CCOCC2)cn1", "Percent Effect": -8.715}
{"structure": "CN1CCN([C@H]2CCN(C(=O)c3nn(C)cc3Cl)C[C@H]2CCCO)CC1", "Percent Effect": 6.202}
{"structure": "O=C(NCc1cc[nH]n1)NCC(c1ccco1)N1CCCC1", "stereo": "centres unmarked", "Percent Effect": -11.79}
{"structure": "CN(c1ccc(F)cc1)S(=O)(=O)c1cc2c(c(C(=O)O)c1)OCCO2", "Percent Effect": -11.76}
{"structure": "CN(C)C1Cc2ccccc2N(S(=O)(=O)c2cccc(C#N)c2)C1", "stereo": "centres unmarked", "Percent Effect": "8.27 & 2.791"}
{"structure": "CCN(CC)C(=O)N1CCN(C(=O)C2CCCc3[nH]ncc32)CC1", "stereo": "centres unmarked", "Percent Effect": -13.33}
{"structure": "[H][C@@]12CN(Cc3ccsc3)C[C@]1([H])OCCN2Cc1cnn(C)c1", "Percent Effect": "3.302 & -20.77"}
{"structure": "Cc1cnn(CC2CCCN2C(=O)Cc2c(C)noc2Cl)c1", "stereo": "centres unmarked", "Percent Effect": -12.58}
{"structure": "Cc1cccc(COC2COC3(CCN(S(C)(=O)=O)CC3)C2)n1.O=C(O)C(F)(F)F", "stereo": "centres unmarked", "Percent Effect": 5.33}
{"structure": "CN(C)CC(=O)N1Cc2nc(C(=O)NCc3ccccc3)oc2C1", "Percent Effect": -28.44}
{"structure": "Cc1nn(C)c(C)c1-c1ccc(=O)n(C(C)C(=O)NC2CCCCC2)n1", "stereo": "centres unmarked", "Percent Effect": "-11.35 & -10.88"}
{"structure": "Cc1cccc2nc(CNC(=O)N3CCC(OCC4CC4)CC3)cn12", "Percent Effect": -16.61}
{"structure": "COCCn1c(C(=O)NCC(C)C(=O)O)cc2ccccc21", "stereo": "centres unmarked", "Percent Effect": -0.4402}
{"structure": "Cn1cc(C(=O)Nc2cccc(CCN3CCCC3)c2)ccc1=O", "Percent Effect": 2.74}
{"structure": "O=C(O)C(F)(F)F.[H][C@@]12CCN(Cc3cccs3)C[C@@]1([H])[C@H](C(=O)N1CCCCO1)CCO2", "Percent Effect": 3.656}
{"structure": "CN(Cc1ccc(C#N)cc1)Cn1nccc1-c1cccnc1", "Percent Effect": -17.07}
{"structure": "CCc1ncc(CN2CCN(CCOC)CC2)cn1", "Percent Effect": -25.97}
{"structure": "Cc1nc(CNC(=O)NCC(O)c2cccc(Cl)c2)cs1", "stereo": "centres unmarked", "Percent Effect": -4.996}
{"structure": "COc1ccc(OC)c(-n2cnnc2C)c1", "Percent Effect": 7.215}
{"structure": "O=c1c(NCCCO)c(N2CCN(c3ccccc3)CC2)c1=O", "Percent Effect": -1.692}
{"structure": "Cc1cnn(C2CN(Cc3noc(C4CC4)n3)C2)c1", "Percent Effect": 3.343}
{"structure": "Cc1cc(N2CCC(NC(C)Cc3ccsc3)CC2)nc(N)n1", "stereo": "centres unmarked", "Percent Effect": -20.56}
{"structure": "Cc1cccc(OCC(=O)N(C)C2CCN(CC3CCOC3)CC2)c1", "stereo": "centres unmarked", "Percent Effect": 19.94}
{"structure": "O=C(O)C(F)(F)F.O=S(=O)(c1cccs1)N1CCCC2(COCCN(c3cccnc3)C2)C1", "stereo": "centres unmarked", "Percent Effect": "16.31 & 3.953"}
{"structure": "CCOc1ncccc1NC(=O)N1CCCN(C(=O)OC)CC1", "Percent Effect": -28.42}
{"structure": "COC(=O)c1cc2c(=O)n(C3CC3)ccc2nc1C", "Percent Effect": -22.19}
{"structure": "CC(C(=O)Nc1ccc2ccccc2c1)N1CCC(n2ccnc2)CC1", "stereo": "centres unmarked", "Percent Effect": "14.03 & 10.29"}
{"structure": "Cc1cnn(CCNCc2csc(-c3ccc(F)cc3)n2)c1", "Percent Effect": 12.22}
{"structure": "CN(Cc1cc[nH]n1)C(=O)c1cccc(CCC(C)(C)O)c1", "Percent Effect": -12.91}
{"structure": "Cc1ccnc(C2CCCN2C(=O)CN(C)C)n1", "stereo": "centres unmarked", "Percent Effect": -0.9096}
{"structure": "CC(C)(C)NC(=O)NC(=O)CNc1c(F)cccc1N1CCCC1", "Percent Effect": -14.77}
{"structure": "Cc1noc(-c2ccnc(Oc3cccc(CN4CCCC4)c3F)c2)n1", "Percent Effect": 12.79}
{"structure": "Cc1ccc(CN2CCC3(CC(=O)N(c4cccc(F)c4)C3)C2)o1.O=C(O)C(F)(F)F", "stereo": "centres unmarked", "Percent Effect": "30.2 & 30.22"}
{"structure": "CS(=O)(=O)N1CCOC2(CCN(c3nccs3)CC2)c2ccccc21", "Percent Effect": -15.57}
{"structure": "O=C(O)C(F)(F)F.O=C(O)C(F)(F)F.[H][C@@]12CN(CCN3CCCC3)CC[C@]1([H])CN(c1cc(OC)ncn1)C2", "Percent Effect": 0.7232}
{"structure": "Cc1ccc(-n2nnc(CC(=O)N3CCN(C4CC4)CC3)c2C)cc1", "Percent Effect": -10.63}
{"structure": "CCN(C)c1ccc(CNC(=O)c2ccc(NC(N)=O)cc2)cc1F", "Percent Effect": 9.07}
{"structure": "Cc1nc(C)c(CN(C)C2CCN(C(=O)OC(C)(C)C)CC2)s1", "Percent Effect": -4.474}
{"structure": "Cc1cc(C(F)(F)F)nc(N(C)Cc2c(C)noc2C)n1", "Percent Effect": -3.87}
{"structure": "CN(C)c1nccc(NCc2cc(-c3cccs3)n[nH]2)n1", "Percent Effect": -22.67}

Once more, the final 4:

structure,Percent Effect
CCN(C)c1ccc(CNC(=O)c2ccc(NC(N)=O)cc2)cc1F,9.07%
Cc1nc(C)c(CN(C)C2CCN(C(=O)OC(C)(C)C)CC2)s1,-4.474%
Cc1cc(C(F)(F)F)nc(N(C)Cc2c(C)noc2C)n1,-3.87%
CN(C)c1nccc(NCc2cc(-c3cccs3)n[nH]2)n1,-22.67%

Data taken from ChEMBL document CHEMBL3988442, “University of Dundee, Small-Polar-MMV Screening Library” (2021).